In PubChem BioAssay AID2685 (National Center for Advancing Translational Sciences (NCATS), 2010) one finds cell number change and AC50 data, which are given here for 39 compounds.

In general, AC50 refers to the midpoint of the concentration-response curve, whichever way the signal moves. Lower therefore signals greater potency.

SMILES strings stand for the structures. Some of the results follow. These are further read-outs of the screen, such as a control signal, another cell line or another target. No call is given for them. The list favours compounds with an active or inconclusive main result. The note in brackets gives the kind of curve behind each potency; many fits are weak.

The nature of this experiment: qHTS Assay for Lipid Storage Modulators in Drosophila S3 Cells.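 On cell number change: cells counted by Cell Tracker Red CMTPX staining in the red channel.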 The conditions noted are these: BODIPY lipid droplet fluorescence, 18-24 h; for cell number change: measured here: cell count max response, cells fed with added oleic acid. The method, boiled down: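 Drosophila S3 cells got compounds at several concentrations plus oleic acid (400 uM solution). Laser-scanning cytometry with 488 nm excitation read lipid droplets at 500-530 nm and cells at 575-640 nm. Percent activity was relative to 20 uM Triacsin C.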
For orientation: Quantitative high-throughput screening tests each substance at several concentrations.

[1] abbreviates: measured here: lipid fluorescence (Fed channel) AC50, cells fed with added oleic acid.
The mark [2] stands for this setting: measured here: cell number channel AC50, cells fed with added oleic acid.

`COc1ccc(C)cc1NC(=O)COC(C)=O`: the cell number change is -34.9%.

For `CCn1c(=O)n(CC)c2cc(N3CCCC3)c(NC(=O)c3ccc(F)cc3)cc21`, the cell number change was -6.42%. Also, under setting [1], the concentration at half-maximal activity (AC50) is 0.731 µM [falling, single point].

Regarding `CCC(C)NC(=O)Cn1cccc1C(=O)c1ccccc1` (configuration not stated), the cell number change is -18.8%. The AC50 under setting [2] was 0.651 µM [falling, full curve, poor fit]. Regarding `CN(C)c1nc(OCCOC(=O)Nc2ccc(Cl)cc2Cl)nc(N(C)C)n1`, the cell number change turned out to be 63.1%. For the same compound, under setting [2], the AC50 is 11.6 µM [rising, partial curve, poor fit]. Besides, the concentration at half-maximal activity (AC50) under setting [1] was 3.66 µM [rising, full curve].

Take `CC(CCCC(C)(C)O)NCCO` (configuration not stated): the cell number change is 12.5%. `N/C(COc1cc(Cl)cc(Cl)c1)=N\O`: the cell number change was determined as 28.9%. Besides, under setting [2], the AC50 was 0.651 µM [rising, full curve, poor fit]. Also, under setting [1], the concentration at half-maximal activity (AC50) is 0.731 µM [rising, single point]. For the compound `CCOC(=O)N1CCC(N2C(=O)c3ccc(C(=O)Nc4ccc(OC)c(OC)c4)cc3C2=O)CC1`, under setting [1], the AC50 is 6.51 µM [falling, single point]. Consider `O=C(CN1CCN(C(=O)c2ccccc2F)CC1)Nc1ccc(Br)cc1`, for which the cell number change was found to be 98.7%. Also, the AC50 under setting [2] was 14.6 µM [rising, partial curve]. In addition, the AC50 under setting [1] is 6.51 µM [rising, single point]. For `O=C(COC(=O)c1ccc(F)c(S(=O)(=O)N2CCOCC2)c1)NCc1ccco1`, the cell number change was determined as 3.52%. Also, the AC50 under setting [2] is 0.0259 µM [rising, full curve, poor fit]. The AC50 under setting [1] is 6.51 µM [falling, single point]. Consider `COc1ccc(C2C(C(C)=O)=C(O)C(=O)N2c2ccccn2)cc1` (configuration not stated), for which the cell number change is -29.2%. In addition, the AC50 under setting [2] was 0.0206 µM [falling, full curve]. On to `COc1ccccc1CCNC(=O)C(=O)NCCC1CCCCN1S(=O)(=O)c1ccccc1` (configuration not stated), for which the cell number change was -51.7%. As for `Cc1nc2ccccc2c(=O)n1NC(=O)c1cncc(Br)c1`, the AC50 under setting [1] was 6.51 µM [rising, single point]. With `O=C(CCNS(=O)(=O)c1cccc2nsnc12)NC1CCCc2ccccc21` (configuration not stated), the cell number change turned out to be 1.56%. Besides, under setting [1], the AC50 was 1.84 µM [rising, partial curve]. Turning to `CC(=O)c1cc(-c2ccccc2)n(CC(=O)N2CCC(C)CC2)c1C`, the cell number change is -51.5%. In addition, under setting [2], the AC50 is 9.2 µM [falling, partial curve]. Besides, under setting [1], the AC50 was 6.51 µM [falling, partial curve]. For `N#CC1=C2N=C(N)c3ccccc3N2C2=C(C(=O)CCC2)C1c1ccc(Cl)cc1` (configuration not stated), the cell number change was 9.71%. Also, the AC50 under setting [1] was 2.91 µM [rising, partial curve].

Consider `COC(=O)[C@@]12CCCCN1[C@H](c1ccc(-c3ccccc3)cc1)[C@@H]1C(=O)N(C)C(=O)[C@@H]12`, for which the cell number change is -43.6%. Further, the AC50 under setting [2] was 23.1 µM [falling, single point].

Regarding `O=C(c1ccc(COCC(F)(F)F)o1)N1CCCCCC1`, the AC50 under setting [1] was 0.103 µM [falling, full curve, poor fit]. For the compound `Cc1cccc(OCC(=O)N(Cc2cccs2)C2CCS(=O)(=O)C2)c1` (configuration not stated), the cell number change turned out to be 21.1%. Further, the AC50 under setting [1] was 16.4 µM [rising, single point]. For the compound `COc1ccc(CNC(=O)CN(C(=O)c2ccc(CN3CCOCC3)o2)C2CCCC2)cc1`, the cell number change was -27.1%. The half-maximal activity concentration (AC50) under setting [1] was 23.1 µM [falling, single point]. With `CCOC(=O)c1c(NC(=O)CSc2ncnc3ccccc23)sc(C)c1C`, the cell number change was 1.8%. In addition, the half-maximal activity concentration (AC50) under setting [1] is 0.651 µM [rising, partial curve, poor fit]. Consider `CS(=O)(=O)n1nc(C(=O)N2CCOCC2)nc1N`, for which the AC50 under setting [1] was 7.31 µM [falling, partial curve]. For `CCOC(=O)N1CCN(C(=O)c2ccc3c(=O)n(CCC4=CCCCC4)c(=S)[nH]c3c2)CC1`, the cell number change is -30.3%. In addition, the half-maximal activity concentration (AC50) under setting [1] is 0.517 µM [rising, full curve, poor fit].

Turning to `Cc1ccc(C(=O)Nc2cc(C)nn2CCC#N)cc1`, the cell number change was -3.91%. Besides, the AC50 under setting [1] was 0.58 µM [falling, single point]. With `CN(C)c1ccc(/C=[N+](\[O-])C2N(c3ccccc3)C(=S)SC2(C)C)cc1` (configuration not stated), the cell number change is -2.12%. For `Cc1ccnc(N/C=C(/NC(=O)c2ccccc2)C(=O)N/N=C\c2ccc(F)cc2)n1`, the cell number change is -2.42%. Moreover, under setting [1], the AC50 was 13 µM [rising, single point]. As to `NC(=O)COC(=O)c1cc(S(=O)(=O)N2CCN(c3ccccc3)CC2)ccc1Cl`, under setting [2], the AC50 is 6.51 µM [rising, single point]. Turning to `Cc1ccc(OCCCCn2cnc3ccccc32)cc1`, the cell number change was -32.6%. In addition, the AC50 under setting [2] is 11.6 µM [falling, partial curve]. For the same compound, the AC50 under setting [1] was 13 µM [falling, partial curve]. Take `CCc1cccc(C)c1NC(=O)c1ccc(CN2CCc3ccccc3C2)cc1`: the cell number change was determined as 16.8%.

On to `CN(C)c1ccc(NC(=O)c2ccc3nc[nH]c3c2)cc1`, for which the cell number change is 4.93%. For the compound `O=C(Cc1ccccc1)Nc1nonc1NC(=O)c1ccccc1`, the cell number change amounted to 6.83%. For the same compound, under setting [1], the AC50 is 0.206 µM [falling, full curve, poor fit].

For the compound `COC(=O)c1cc(-c2ccc(OC)c(OC)c2)n[nH]1`, the half-maximal activity concentration (AC50) under setting [2] is 1.64 µM [rising, partial curve]. In the case of `O=C(Cc1ccccc1)Nn1c(-c2ccccc2)nc2ccccc2c1=O`, the cell number change worked out at 1.1%. Under setting [1], the AC50 is 3.26 µM [falling, partial curve, poor fit]. Take `CC(C)CC(=O)NC(=S)NNC(=O)c1ccc([N+](=O)[O-])cc1`: the cell number change was -5.14%. `Cc1cccc(NS(=O)(=O)c2ccc3c(c2)CCC(=O)N3)c1`: the cell number change came to 1.35%. The concentration at half-maximal activity (AC50) under setting [1] is 0.116 µM [rising, full curve, poor fit]. Consider `O=C(Nc1cccc(C(=O)O)c1)Nc1ccc2c(c1)OCO2`, for which the cell number change was -0.495%. Also, the AC50 under setting [1] is 29.1 µM [rising, single point].

With `O=C1CC(c2ccco2)Cc2nc(N3CCc4ccccc4C3)ncc21` (configuration not stated), the AC50 runs as follows: under setting [2], 6.51 µM [rising, single point]; under setting [1], 29.1 µM [rising, single point].

Consider `O=C(COC(=O)Cn1cnc2ccccc2c1=O)NCc1ccccc1Cl`, for which the cell number change is 39.1%. Besides, the AC50 under setting [2] was 0.00461 µM [rising, full curve, poor fit]. The AC50 under setting [1] is 0.00461 µM [rising, full curve, poor fit]. Turning to `COc1ccc(S(=O)(=O)NCC2CCCN(C(=O)CCC(F)(F)F)C2)cc1` (configuration not stated), the cell number change was 4.58%.

On to `COc1ccc(C(=O)C(c2ccccc2)N2CCOCC2)cc1` (configuration not stated), for which the cell number change was -26%. Besides, under setting [2], the AC50 was 6.51 µM [falling, single point]. For the same compound, under setting [1], the AC50 is 0.0461 µM [rising, single point].
